Data as given in PubChem BioAssay AID652243 (Drosophila RNAi Screening Center, 2013)

Test: 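Fly regulators of androgen-dependent reporter output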 (primary screen)
System: Drosophila S2R+ cells
Knock-down reagent: long dsRNA against Drosophila genes
Duration: 72 h (48 h, then 24 h hormone)
Conditions: synthetic androgen R1881 at 10 nM for 24 h
Detection: 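Firefly light from an androgen-responsive reporter and Renilla control light per well, raw and unnormalised, for each of two replicates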
Direction: firefly reporter light: higher = more light from androgen-responsive reporter; Renilla control light: higher = more constitutive control signal (cell number, transfection)
Call rule: 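Hit when the log firefly-to-Renilla ratio dropped or increased by a fixed fold versus the mean of GFP or LacZ controls across duplicate plates; lowering cut given as 1.5 and as 3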
Meaning of the calls: active = hit: reporter lowered or raised; inactive = no hit
The screen tested about 24,000 reagents; this is an unselected part of those with a known target gene and a result. Over the whole deposit, 246 (1%) are marked active. 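Plates not normalised; calls are printed but the firefly/Renilla ratio behind them is not deposited; fold cut for lowering reported inconsistently.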 Raw values are not corrected between plates. Not given: the amount of reagent.

Which result is listed for Aps (Aps pyrophosphatase) [DRSC10629]?
firefly reporter light, replicate 1: 2.45e5; firefly reporter light, replicate 2: 1.97e5; Renilla control light, replicate 1: 3.22e6; Renilla control light, replicate 2: 2.90e6; Outcome: inactive

For CG12241 [DRSC14481], how do the results read?
firefly reporter light, replicate 1: 66311; firefly reporter light, replicate 2: 69204; Renilla control light, replicate 1: 4.90e5; Renilla control light, replicate 2: 5.39e5; Outcome: inactive

With CG12241 [DRSC26642], what was measured?
firefly reporter light, replicate 1: 2.75e5; firefly reporter light, replicate 2: 2.60e5; Renilla control light, replicate 1: 6.26e5; Renilla control light, replicate 2: 7.10e5; Outcome: inactive

With CG18368 [DRSC06731], how do the results read?
firefly reporter light, replicate 1: 65620; firefly reporter light, replicate 2: 86374; Renilla control light, replicate 1: 1.46e6; Renilla control light, replicate 2: 1.46e6; Outcome: inactive

How did the screen score dUTPase (Deoxyuridine triphosphatase) [DRSC01998]?
firefly reporter light, replicate 1: 8.04e5; firefly reporter light, replicate 2: 7.12e5; Renilla control light, replicate 1: 2.96e6; Renilla control light, replicate 2: 2.64e6; Outcome: inactive

For dUTPase (Deoxyuridine triphosphatase) [DRSC29469], how do the results read?
firefly reporter light, replicate 1: 4.82e5; firefly reporter light, replicate 2: 6.15e5; Renilla control light, replicate 1: 8.60e5; Renilla control light, replicate 2: 8.60e5; Outcome: inactive

What is on record for CR40282 (pseudo) [DRSC07814]?
firefly reporter light, replicate 1: 57393; firefly reporter light, replicate 2: 96932; Renilla control light, replicate 1: 7.68e5; Renilla control light, replicate 2: 9.72e5; Outcome: inactive

Which result is listed for Pvf3 (PDGF- and VEGF-related factor 3) [DRSC02284]?
firefly reporter light, replicate 1: 2.23e5; firefly reporter light, replicate 2: 1.78e5; Renilla control light, replicate 1: 2.68e6; Renilla control light, replicate 2: 1.29e6; Outcome: inactive

How did the screen score Pvf3 (PDGF- and VEGF-related factor 3) [DRSC02285]?
firefly reporter light, replicate 1: 2.09e5; firefly reporter light, replicate 2: 1.88e5; Renilla control light, replicate 1: 1.83e6; Renilla control light, replicate 2: 1.65e6; Outcome: inactive

What did the screen give for Pvf3 (PDGF- and VEGF-related factor 3) [DRSC02286]?
firefly reporter light, replicate 1: 1.04e5; firefly reporter light, replicate 2: 1.04e5; Renilla control light, replicate 1: 8.28e5; Renilla control light, replicate 2: 7.14e5; Outcome: inactive

How did the screen score Pvf3 (PDGF- and VEGF-related factor 3) [DRSC02751]?
firefly reporter light, replicate 1: 1.83e5; firefly reporter light, replicate 2: 87750; Renilla control light, replicate 1: 1.58e6; Renilla control light, replicate 2: 8.99e5; Outcome: inactive

What is on record for Pvf3 (PDGF- and VEGF-related factor 3) [DRSC25172]?
firefly reporter light, replicate 1: 5.64e5; firefly reporter light, replicate 2: 4.16e5; Renilla control light, replicate 1: 6.26e5; Renilla control light, replicate 2: 5.31e5; Outcome: inactive

With Pvf3 (PDGF- and VEGF-related factor 3) [DRSC28641], how do the results read?
firefly reporter light, replicate 1: 2.98e5; firefly reporter light, replicate 2: 3.53e5; Renilla control light, replicate 1: 9.53e5; Renilla control light, replicate 2: 8.39e5; Outcome: inactive

What is on record for CG15528 [DRSC15065]?
firefly reporter light, replicate 1: 1.96e5; firefly reporter light, replicate 2: 1.65e5; Renilla control light, replicate 1: 2.73e6; Renilla control light, replicate 2: 3.34e6; Outcome: inactive

With CG11449 [DRSC11662], what does the deposit list?
firefly reporter light, replicate 1: 2.20e5; firefly reporter light, replicate 2: 1.53e5; Renilla control light, replicate 1: 2.06e6; Renilla control light, replicate 2: 1.66e6; Outcome: inactive

Which result is listed for CG11449 [DRSC29180]?
firefly reporter light, replicate 1: 5.49e5; firefly reporter light, replicate 2: 3.88e5; Renilla control light, replicate 1: 1.20e6; Renilla control light, replicate 2: 9.38e5; Outcome: inactive

Which result is listed for Marf1 (Meiosis regulator and mRNA stability factor 1) [DRSC03747]?
firefly reporter light, replicate 1: 2.27e5; firefly reporter light, replicate 2: 2.18e5; Renilla control light, replicate 1: 1.44e6; Renilla control light, replicate 2: 1.55e6; Outcome: inactive

What did the screen give for Marf1 (Meiosis regulator and mRNA stability factor 1) [DRSC03774]?
firefly reporter light, replicate 1: 2.13e5; firefly reporter light, replicate 2: 2.54e5; Renilla control light, replicate 1: 6.32e5; Renilla control light, replicate 2: 5.33e5; Outcome: inactive

With CG14326 [DRSC14805], what was measured?
firefly reporter light, replicate 1: 77738; firefly reporter light, replicate 2: 63608; Renilla control light, replicate 1: 1.91e6; Renilla control light, replicate 2: 1.35e6; Outcome: inactive

How did the screen score CG14326 [DRSC28069]?
firefly reporter light, replicate 1: 4.95e5; firefly reporter light, replicate 2: 2.86e5; Renilla control light, replicate 1: 1.24e6; Renilla control light, replicate 2: 1.03e6; Outcome: inactive

With RhoGAP54D (Rho GTPase activating protein at 54D) [DRSC06990], what does the deposit list?
firefly reporter light, replicate 1: 46343; firefly reporter light, replicate 2: 60591; Renilla control light, replicate 1: 1.01e6; Renilla control light, replicate 2: 1.01e6; Outcome: inactive

What did the screen give for RhoGAP54D (Rho GTPase activating protein at 54D) [DRSC26684]?
firefly reporter light, replicate 1: 2.65e5; firefly reporter light, replicate 2: 2.16e5; Renilla control light, replicate 1: 6.27e5; Renilla control light, replicate 2: 6.08e5; Outcome: inactive

Limited to “Renilla control light, replicate 2” (3 entries from above):
Pvf3 (PDGF- and VEGF-related factor 3) [DRSC25172]	5.31e5
Pvf3 (PDGF- and VEGF-related factor 3) [DRSC28641]	8.39e5
CG15528 [DRSC15065]	3.34e6
